For this experiment, the target named is His-tagged ISD11 (pZM6), co-expressed with IscS (human) (UniProt Q9HD34). Nature of the experiment: SEC; analytical SEC at 280 nm of 30 μM co-expressed and co-purified ISD11-His6 (pZM6) and IscS (pSL219), compared with isolated IscS. For orientation: Size exclusion chromatography separates by hydrodynamic size, large species first.

Protein sequences, listed by entry. Tags and fused reporters are not part of them.
UniProt Q9HD34: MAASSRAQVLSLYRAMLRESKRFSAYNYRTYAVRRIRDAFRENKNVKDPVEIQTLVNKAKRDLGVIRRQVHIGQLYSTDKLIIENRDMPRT
UniProt P0A6B7: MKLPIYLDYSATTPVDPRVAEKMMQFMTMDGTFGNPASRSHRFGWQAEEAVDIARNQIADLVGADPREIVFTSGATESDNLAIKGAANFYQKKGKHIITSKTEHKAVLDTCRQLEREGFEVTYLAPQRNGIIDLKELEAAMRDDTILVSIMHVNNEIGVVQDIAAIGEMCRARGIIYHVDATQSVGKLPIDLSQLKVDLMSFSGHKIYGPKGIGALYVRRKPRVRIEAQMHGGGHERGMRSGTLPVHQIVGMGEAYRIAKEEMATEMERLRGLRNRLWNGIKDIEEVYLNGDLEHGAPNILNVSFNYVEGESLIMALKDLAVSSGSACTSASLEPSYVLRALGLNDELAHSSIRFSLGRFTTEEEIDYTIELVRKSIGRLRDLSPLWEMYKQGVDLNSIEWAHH

These are yes or no findings as the source states them, for the method shown. Some binding calls cover weakened binding; strength is not graded here.

Consider “untagged IscS (pSL219), co-expressed with His-ISD11 (from UniProt P0A6B7 1-404) (enzyme)”, for which the binding result was “binds”.

The record behind these values is article PMC4948766.
